Laboratory results as given in patent US20140235701.

The chains behind the UniProt entries cited, without tags or fusion partners. Residues count along the entry.
UniProt P01138, 122-241: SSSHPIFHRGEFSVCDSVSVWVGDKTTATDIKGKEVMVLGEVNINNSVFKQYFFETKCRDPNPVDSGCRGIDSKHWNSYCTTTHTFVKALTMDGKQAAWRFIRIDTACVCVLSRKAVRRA
UniProt P23560, 129-247: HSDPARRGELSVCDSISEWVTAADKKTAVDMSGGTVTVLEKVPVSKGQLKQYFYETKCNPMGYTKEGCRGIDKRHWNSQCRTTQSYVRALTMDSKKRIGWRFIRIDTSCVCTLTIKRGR
UniProt P34130, 81-210: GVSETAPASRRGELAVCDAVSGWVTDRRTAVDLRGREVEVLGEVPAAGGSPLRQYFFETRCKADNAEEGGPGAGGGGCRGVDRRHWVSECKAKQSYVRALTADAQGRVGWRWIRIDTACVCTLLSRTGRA

Assays:
[1] = biological target: NGF (nerve growth factor) (Homo sapiens) (UniProt P01138); experiment: SPR; details: 2'-F C and U, 2'-OH G, 2'-H (deoxy) A, purified recombinant protein, protein details: R&D Systems
BDNF (Homo sapiens) = BDNF (Homo sapiens) (UniProt P23560); experiment: activity in cells; details: TF-1, purified recombinant protein, protein details: R&D Systems
NT-3 (neurotrophin-3) [2] = biological target: T1, NT-3 (neurotrophin-3) (UniProt P20783); experiment: activity in cells; details: TF-1, purified recombinant protein, protein details: R&D Systems
T1 sequence (looked up, limits assumed): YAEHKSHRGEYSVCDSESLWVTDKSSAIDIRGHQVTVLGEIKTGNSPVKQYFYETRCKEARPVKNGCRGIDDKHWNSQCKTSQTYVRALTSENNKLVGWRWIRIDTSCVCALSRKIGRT

NT-4 (neurotrophin-4) [3] = biological target: NT-4 (neurotrophin-4) (UniProt P34130); experiment: activity in cells; details: TF-1, purified recombinant protein, protein details: R&D Systems
NT-4 (neurotrophin-4) [4] = biological target: NT-4 (neurotrophin-4) (UniProt P34130); experiment: SPR; details: 2'-OH G, purified recombinant protein, protein details: R&D Systems
NT-3 (neurotrophin-3) [5] = biological target: T1, NT-3 (neurotrophin-3); experiment: SPR; details: 2'-OH G, purified recombinant protein, protein details: R&D Systems
[6] = markedly decreased vs SEQ 13, no remarkable neurite inhibition at 10 nM, variant of SEQ ID NO: 13
[7] = as 82(1) except 2'-OMe U4,C6,U11,C21,U23,C26,U30,C32,U35,C38-40, variant of SEQ ID NO: 82(1)
[8] = markedly decreased vs SEQ 11, variant of SEQ ID NO: 11
[9] = markedly decreased vs SEQ 13, variant of SEQ ID NO: 13
[10] = as 87(2) plus 2'-OMe C9,U10,C11,G29-31, variant of SEQ ID NO: 87(2)

GGGGUCCUGCUGCGUAGUUUCCGCUCCGUGGCUGUUACCCC [SEQ ID NO: 133]
binding result [1, 6]: binds more weakly

GGGCACAUCCUGCUGCGUAGUUUGUCUCCGUGGCUGUUAUGUGC [SEQ ID NO: 131]
binding result ([1]; markedly decreased vs SEQ 11, no remarkable neurite inhibition at 10 nM, variant of SEQ ID NO: 11): binds more weakly

GGGUCCUGGAUAAGAGUUUCCGUCUCGUAUCCUGUUACCC [SEQ ID NO: 82(18)]
IC50 (BDNF (Homo sapiens); as 82(1) except 2'-OMe C40, variant of SEQ ID NO: 82(1)): > 1000 nM

GGGUCCUGGAUAAGAGUUUCCGUCUCGUAUCCUGUUACCC [SEQ ID NO: 82(1)]
IC50 (NT-3 (neurotrophin-3) [2]; 2'-OMe G (G8,G34 2'-OH), dA, 2'-F C/U, 5',3' idT, variant of SEQ ID NO: 82): > 10 nM

GGGUCCUGGAUAAGAGUUUCCGUCUCGUAUCCUGUUACCC [SEQ ID NO: 82(20)]
IC50 (NT-4 (neurotrophin-4) [3]; [7]): > 30 nM
IC50 (BDNF (Homo sapiens); [7]): > 1000 nM

GGGCACAUCCUGCUGCGUAGUUCCGUCUCCGUGGCUGUUAUGUGC [SEQ ID NO: 130]
binding result [1, 8]: binds more weakly

GGGCACAUCCUGCUGGUAGUUUCCGUCUCCUGGCUGUUAUGUGC [SEQ ID NO: 124]
binding result [1, 8]: binds more weakly

GGGUCCUGGAUAAGAGUUUCCGUCUCGUAUCCUGUUACCC [SEQ ID NO: 82(17)]
IC50 (BDNF (Homo sapiens); as 82(1) except 2'-OMe C39, variant of SEQ ID NO: 82(1)): > 1000 nM

GGGGUCUGCUGCGUAGUUUCCGUCUCCGUGGCUGUACCCC [SEQ ID NO: 137]
binding result [1, 9]: binds more weakly

GGGGUCUGCUGCGUAGUUUCCGUCUCCGUGGCUGUUACCCC [SEQ ID NO: 135]
binding result [1, 6]: binds more weakly

GGGGUCCGCUGCGUAGUUUCCGUCUCCGUGGCUUUACCCC [SEQ ID NO: 140]
binding result [1, 9]: binds more weakly

GGGGCCUGCUGCGUAGUUUCCGUCUCCGUGGCUGUUCCCC [SEQ ID NO: 129]
binding result [1, 9]: binds more weakly

GGGUCCUGGAUAAGAGTUUCCGUCUCGUAUCCUGUUACCC [SEQ ID NO: 156]
IC50 (BDNF (Homo sapiens); as 82(1) except dT17, variant of SEQ ID NO: 82(1)): > 1000 nM

GGGGUCCGCUGCGUAGUUUCCGUCUCCGUGGCGUUACCCC [SEQ ID NO: 139]
binding result [1, 9]: binds more weakly

GGGCACAUCCUGCUGCGAGUUUCCGUCUCGUGGCUGUUAUGUGC [SEQ ID NO: 122]
binding result [1, 8]: binds more weakly

GGGUCCUGACGUAUAGUUUCCGUCUGUAUGUCUGUUACCC [SEQ ID NO: 101]
binding result (NT-4 (neurotrophin-4) [4]; 2'-F C and U, 2'-H (deoxy) A, weak binding to NT-4): binds more weakly
binding result (NT-3 (neurotrophin-3) [5]; 2'-F C and U, 2'-H (deoxy) A, weak binding to NT-3): binds more weakly

GGGUCCUGGAUAAGAGUUUCCGUCUCGUAUCCUGUUACCC [SEQ ID NO: 82(55)]
IC50 (BDNF (Homo sapiens); as 82(25) except 5' PEG80TS4 instead of idT, variant of SEQ ID NO: 82(25)): > 1000 nM

GGGUCCUGAGCAAGAGUUUCCGUCUCAUGCUCUGUUACCC [SEQ ID NO: 102]
binding result (NT-4 (neurotrophin-4) [4]; 2'-F C/U, dA, weak): binds more weakly
binding result (NT-3 (neurotrophin-3) [5]; 2'-F C/U, dA, weak): binds more weakly

GGGUCCUGUGGAAGAGUUUCCGUCUCGUCCACUGUUACCC [SEQ ID NO: 89(4)]
IC50 (NT-3 (neurotrophin-3) [2]; as 89(2) plus 2'-OMe U9,G10,G11,C29,C30, variant of SEQ ID NO: 89(2)): > 10 nM

GGGUCCUGCUCAAGAGUUUCCGUCUCGUGGGCUGUUACCC [SEQ ID NO: 87(4)]
IC50 (NT-4 (neurotrophin-4) [3]; [10]): > 300 nM
IC50 (NT-3 (neurotrophin-3) [2]; [10]): > 10 nM

GGGGUCCUGCUGCGUAUUUCCGUUCCGUGGCUGUUACCCC [SEQ ID NO: 128]
binding result [1, 6]: binds more weakly

GGGUCCUGUUCAAGAGUUUCCGUCUCGUGAACUGUUACCC [SEQ ID NO: 88(4)]
IC50 (NT-3 (neurotrophin-3) [2]; as 88(3) plus 2'-OMe U9,U10,C11,G29, variant of SEQ ID NO: 88(3)): > 10 nM

For some assays here: Weaker means in comparison with the reference protein, sequence or condition of that experiment. For some assays here: Tags and fusion partners may be left off the protein sequences shown.
